Assay results published in publication PMC8964110.
No constants are given. Whether binding was seen depends on the method and setting. In cells and extracts the contact can be indirect. Here binding means that the protein was enriched with, or labelled near, the bait; the list need not be complete.

B1: Tubulin beta chain (protein, UniProt C4LUJ0 1-459)
chain: MREIICLQIGQCGNQVGEKFWDIIGQEHGLSPDGIFNGNKLQQQRLNVYFSESSTKRYVPRSINVDLEPGTLDTIKSGKMGHFFKPDSFIFGHGGAGNNWAKGHYTEGTEICETIMESVRKEAEACECLQGFQVTHSLGGGTGSGLGTLLLSKLKDEFFEKVISTFSVVPSPTVSETVVEPYNCTLSVHKLLESSGVTFCFDNEALFKIASDIMKEPKPSYESLNSLISSVMSGITCSLRFPGQLNQDLKKLTVNMIPYPRLHFFSSSIAPVSSALSMQYESLSVQEIIQQLFDRKNMMVDLDPASGKYLTASCIMRGKVSTHDVEEQLYKIREKNPDAFVPWIPNNMQLAVCDIPPKGLNLSGTFIGNSTSIMDLFQRVNSQFLSMFKRKAFLHLYTEEGMEESEFSEATADLIDLVNEYRQYDKASPEVDDEQPDQEGELLTEVHEDSLAHSPTNQV
B2: Pyruvate:ferredoxin oxidoreductase (protein, UniProt C4LTX6 1-1162)
chain: MQSVDGNQAAAYVSYALSDVSFIFPITPSSPMAENADVWSSQGRKNVFGQVVDVYEMESEAGASGAVHGGCAAGSLVSTYTCSQGLMLMIPNMIKIAGEHLPCVFHVTARALAGQALSIFGDHSDVMACRSTGFCLLSSHNVQQCHDLAIVAHLATLEASLPFMHFFDGFRTSHEIQKIHQLTYDQIKSLVDMKYVDRAHKRGLNPIHPSQRGTSQGPDVFFQAVEKSNADYLKVPEIVQKYMDKVGELTGRHYKIFEYYGAADAERVVVVMGAAVPVLEECVDYLMKSGEKVGVLSVHLYRPWSAKHFLEQLPKTVTKISVLDRTKEAGSFGEPLYLDVATTLLDAGKHIKCVGGRYGLGSKEFTPAMAKAVFDNLKNEEPKNHFTVGIEDDVTHMSLPIGENFNPIPEGTTQCMFWGLGSDGTVGANHDAIRIIGQNTDMYVQGYFSYDAHKSGGVTVSHLRFGQKPIKSQYLIQNADYTACHFPNYVKKYKLLDAAKPNSVFVLNCPWTGAELEAQLPGSLKRVIAEKQIKFYTIDAIKIGQEVKLGRRINMIMQTVFFKLANVIPFEKAIVLLKEAVQKTYGAKGPAIVKMNHDAIDKALDGLVEVKVPAEWANAPLETVTKIEAPEFVTDVLMPQLAMKGNELPVSKFAADGFMPMGTTKYEKRGIATKIPTWEASKCVQCNMCSLYCPHAAIRCFYLTPEESAKAPAEFVQIDGKAQQAGYKFRIQVSAMDCTGCEVCTTACPVKCLSMTPFEQVSEVESKNWEFAMTLSPKNSLSDRSNIKTTMIHQPYLEFSGACEGCNETALVKLITQLYGERTIIANATGCSSIWGATWGTNPYTVDGEGRGPAWGNSLFEDNAEYGFGMFKANEQRRLYLEQICKEAIAEGKLSNELKTLLEEWIAKKEDANESEKIYAAVKPLLAAEKDKSEVLGLIEQNSDMFVKISHWIVGGDGWAYDIGYNGVDHVLASGHNVNILVLDTEMYSNTGGQKSKATNLGAVVKFASSGCKRPKKDLGAIAMAYGDVYVASIALGANPAQAFKAFKEAESYNGVSLIIAYCPCKEQGVPLQKSIEEAKMAVNSGYWSLYRYDPRLVEQGKPGLQLDCSEVKGDLEAFLARENRFALLGRKDKETADKLHAQLKANIDKKLAHLKVVSKQA
B3: Calmodulin (protein, UniProt C4LUQ9 1-153)
chain: MSRRRDEEVDQELVGELKDAFDMFDSSKKGYLDKDDVKKLFKTNGIRVTDEDLDAAFKEADADGDKKIECMEFINMMTGKMKTASTEQKLTEAFKVFDPEEKGVIDSKELTEALLNIGERCTTSEVGELKTVAENQEGQIRYELFIQAVFAKK
B4: Leucine rich repeat protein (protein, UniProt C4MBQ9 1-335)
chain: MQQSQQHLGYNEIMIVSKYFEGINDFINLEMGVKRFQGNMERFHFNPIPLNQYSRKLFPNIETFHIYNKNDTKFQDGKIFKQVIWYEVNYQDYLKEKASGNDYKNVFINKDEKGVDLNNVPEPINGIGDNFYASSNMTELQLSPKIKRIGKNCFSHCDQLTKVTVPTSISVLSDSCFYHCGHITEIILSDAIQKLEDFCFAECYSLKSITLPLSIIKVGSRCFERCSSLTNLNIPGYHFTIGNRIYFNNAPLITMVIPSSVKTINELPINKIPEGQKIVIPKSVFSVSKMAFVDVDSKLISSDNTIPYIRKTIMDTIYQDAKERDGTYDKFSRIF
B5: AAA domain-containing protein (protein, UniProt C4M3C0 1-422)
chain: MEGFTEEEMITLNEADVLSLSNEEIKQQIKQMERQEGVIRHEHERIRQELAVINKQNKESKEKIEMFAKLPFLISNVVEILDLPPEESDDGSGLDNKGNVGTKGVVINTSMRSNVFLPVSGLVNVKDLKPGDLVGVNKDTYLILEKLPQQYDGRVKSMEVIERPTETYNDVGGLDKEMKEMIEAIVLPMTQKEKFEKLGIQTPKGVLLYGPPGTGKTLMARACAAQTKSTFLKLAAPQLVSSSIGDGSRIIREMFELAKSKAPAIIFIDEIDAIGTKRTESEHSGDREIQRTMLELLNQLDGFSKTDDVRVIAATNRIDVLDPALLRSGRFDRKIEFPTPNEEARVHILQIHSKKLKCSDDINFEELARSTQDFNGAQLKAVCVEAGMIALRREAIEIRHEDFQQGILEVQSKKKKSLTYFA
B6: Inositol-3-phosphate synthase (protein, UniProt C4M5S9 1-508)
chain: MSYQFHSTKSHQTESSIEADFHYETTHVEVSKEGVICTPIAKDYKFKVDKKIPKMGLMMIGWGGNNGTTVTAGILANKHHLCWTDRRGVHEPNYYGSYTQSATMRLGATSEGEEIYAPYKDILPFVCPDNIVVGGWDISKVNMADALKRAQVVDYDLQRQLYPYMKELVPLPSIYYKSYIAANQDDRADNVIPGTKQNHLDTVRQNIRDFKAQHGLDKIVVLWTATTERYVEIKEGLNDTAENLLKSIAAGEEEVSPSTIFATAAILEGCPFVNGSPQNTLVPGVIDLANKHGGAVMGDDFKTGQTKIKSVLADFLVSSGLKLQSIVSYNHLGNNDGKNLSSPSQFRSKEISKSNVVSDVVKSNNIMYKEGEHPDHVIVIKYVPYVGDSKRAMDEYTSEIFLGGHNTIALHNTCEDSLLAAPLMIDLAVLMEFMTRVTYSIDGKEFKNFNSVMSMISYLLKAPVVPKGSPVINALFKQRECLDNFFRALLGLPCDNHLLLEGKTEHFF
B7: Polyadenylate-binding protein (protein, UniProt C4M6Y2 1-514)
chain: MTTAQSNFSDFAENKTIFVSGLSLNVTESVLYGTVLKEFPNQVLNVHINKDNSHDTSIAYINMNTHDSAAQAISKLNGTIIEGRKVNMFWSLRDYKLRTQSETNLYVKGIKKEIGQQKMQEVFDKYGNTLSVKLSTNEKNESNGFGYVKYCTVDECKKVIAAKEEISKEIGEASFDIVKFEKQNKSLKTNIYIGNIDATVTEEQFLKYFETFGPIRKDASGKLAYKIVLDQAHQKNKGFVNYENVEDAQKAISSPKTGVLGSGEILIDYYKSKEERKKEWRNALFEIKNNVAGRYKDFNLYINTGKNHTTSDAEIREKLGSCGEIYSLQVKYYNKQPTEVAYCCFKDAQGAQNALAKASELGWTINKFMTKQEKFISQNMYAQTAYPINFFNFFQMFNPNVIVPQHPQNQNKEKDHRKKSTREESRKPKPIAEKQPKVEKAPIINEDMKNELGDQLYDYILSLGLYDEDLTGRITGVLLESIEYADLKKKIDTKSPELTVIIKEIVENLKKIQN
B8: Glutamine--tRNA ligase (protein, UniProt C4M1P6 1-753)
chain: MAGAAEQFELIGIAKQKAEETLKNAELTKTLLDIIKEAGCEKGCEKAIGQLLYQLATKLNKGKESIRPQVIAWIVSKKVTNINMDALMTYINKHQELDIPTIEKECGVGVVVTREQIIEGVKQLLSGKMEELKKNRYTMEGQLIREAKDSIKWADGKVLNEELMKQLKEILGEKTKDDIKKKAQKKSGEPNKKEEVKNLPKQKNVDSGVKLSNPADNIQKTPEILAEHLKRTGGIYVTRFPPEPNGYLHIGHAKSMYLNFGYAEKTGGKCYMRFDDTNPEKETHEFINTIEETVKWLGHTPCAVTYSSQYFDRIYDCAIELIKRGKAYVCHQTPDQIAASRENKQPSPWRDRSVEENLKHFKWMCQGRYGEGEATLRMKMDINSPNPCMWDLVAYRIKFFPHPVTGDRLCCYPSYDFVHCLVDSFEDITHSMCTLEFLPRRESYFWLLDALDMYKPVVWEFNRLNITYTVMSKRKLHALVDKGYVRGWDDPRMPTIMGFKRKGYSADAINNFCRTVGVTTNTTVYIDYEVLEQHCRDDMEVKCKRAMCVPDPVKVILTNVPDDYCIEVVRPNHPMNDKMGTNTVHLRKVLYIDRSDWRDEDKKGYWGLAPNKVVGLRYAGNIICHKFDKDAEGKITCLYCTFDADKKEKPKGHIQWVSSGVNGAEPAKAELRYYDTLFTDPKPESPDWEKLINPKSLTIVNGYVDETLEHVKPLDCFQFERVGFFCCDSDSKEGALVFNRTVGLKESKEKKQI
B9: GOLD domain-containing protein (protein, UniProt A0A8U0WP28 1-193)
chain: MIGLLLFITFTSTNAYRFIVPNRAQECVYSEIKDIEKVIVEIGVISGGNKDIAFTVTDPSGSNIYSIVYEEGKYNNYIYINTKTPGVYSFCFDNTMSLYTSKLVEFKLQLEQIQPATEQEVKSIKTKLQQVSTYLNDAKNDQRRLRIRENRNRQTGDATNLRTTILFLIGCFVIMAMGCFQVWYIKRQFKRGR
B10: Uncharacterized protein (EHI_047800) (protein, UniProt C4M7X1 1-304)
chain: MLFFLLVAFVSADFDVQSAGRLYDHTVLEANFQAKGVPNYFIFNATRQKELWTTVNPSDNAVIGTVELSFQYFVTNNLLNRLAVCIGKKEEIPNNYTGIGTNFINPQGSTYCKEQTSSTSGTLTLSFEKSYDEYYIAAYVQCKTEALCFSQDVIISTTCGKEQSSETIKSYDKEPYVILPNKDFRFSTEFEYGGSKSDKKVLNFVIYTPAKGDKNIYFAMKGKVIPTLFYTTNLTETCSGNACFHTNGAENGFLELSNINEKTPVKIMLQGNEKSKIQIKLSDGTDFAPATIISLMALLLFFML
B11: PNP_UDP_1 domain-containing protein (protein, UniProt C4M2Y7 1-320)
chain: MSRLTEATLPANGNTIYHLSITAEDLADNIILVGDPERVPKASKLLFDESKPIFRRDHRGLTTMTGFTPKGLRISIVTHGMGTGSAEIIINEILALKCIDVKTRTPKAAPTHPVNIIRVGTSGAISKNTPIGTAIVTKYTIGLDNTGLFYDVKQVNKEALELEKEVIEKIDKAIPEGHRFKGKIRPYVSVPNSLVVEALEKVAKEQNVPYKVGITASAAGFFVCQGRFIFKELPTTISSLEDVLMNVQTKDLMVENFEMEMSCITQITQGFKWVRSGGICEIVDNRQLKTFTSADDVNVDKILKVAADALAILDTIPMEQ
B12: EF-hand calcium-binding domain containing protein (protein, UniProt C4MBE2 1-227)
chain: MQFGYPPMQPPVANFCLWNLQPIQGSWMGAACIYQMPPSVRNTWWFPLLNTIPLDQYTRIYQWFMGVDRDRSGTLEINELMMGQFPGGIRLSPQTALRMMRIFDTDFNGHISFYEFMAMYKFMELAYNLFVMNDRNRSGTLEPHEILPALQQLGFYINQRTSLLLHRLFARGMAFCDLNCWIAICAFAAQTRSAYQMIFMNPYYGPMKPFNPMEFGKFLDVVTSLLE
B13: Cysteine synthase A (protein, UniProt C4M0H9 1-337)
chain: MEQISISSPRKRIYHNILETIGGTPLVELHGVTEHPRIKKGTRILVKLEYFNPMSSVKDRVGFNIVYQAIKDGRLKPGMEIIEATSGNTGIALCQAGAVFGYRVNIAMPSTMSVERQMIMKAFGAELILTEGKKGMPGAIEEVNKMIKENPGKYFVANQFGNPDNTAAHHYTANEIWEDTDGEVDIVVSAVGTSGTVIGVAEKLKEKKKGIKIIAVEPEESAVLEGKAKGPHGIQGIGAGFIPDIYKKEFVDEIIPIKTQDAWKMARAVVKYDGIMCGMSSGAAILAGLKEAEKPENEGKTIVIIVPSCGERYLSTDLYKIKDEGTKIQILDSLLNE

Target: EhVps23 (E. histolytica (endogenous in HM1:IMSS trophozoites))
Assay: affinity purification with mass spectrometry; immunoprecipitation with α-EhVps23 antibody and protein G-agarose from trophozoite lysates (10 mM Tris-HCl, 50 mM NaCl, protease inhibitors, freeze-thawing; pre-cleared with Protein-G, 2 h at 4°C); precipitate separated by gel electrophoresis, LC-ESI-HDMSE

| Binder | binding |
| --- | --- |
| B1 | binds |
| B2 | binds |
| B3 | binds |
| B4 | binds |
| B5 | binds |
| B6 | binds |
| B7 | binds |
| B8 | binds |
| B9 | binds |
| B10 | binds |
| B11 | binds |
| B12 | binds |
| B13 | binds |
